Laboratory results as given in the supplement of paper PMC3334620.
The full ranking holds about 33,000 sequences; the median of “E-score (-0.5 to 0.5)” is about -8e-05, and the highest 2% start at about 0.23. The list shows a part of the results.

biological target: T1, Nrg2 (UniProt P38082); test: PBM E-score (8-mer binding enrichment) (E-score (-0.5 to 0.5)); higher = stronger / more preferred TF binding; conditions: protein concentration: 100 nM; construct: GST-full length
T1 sequence: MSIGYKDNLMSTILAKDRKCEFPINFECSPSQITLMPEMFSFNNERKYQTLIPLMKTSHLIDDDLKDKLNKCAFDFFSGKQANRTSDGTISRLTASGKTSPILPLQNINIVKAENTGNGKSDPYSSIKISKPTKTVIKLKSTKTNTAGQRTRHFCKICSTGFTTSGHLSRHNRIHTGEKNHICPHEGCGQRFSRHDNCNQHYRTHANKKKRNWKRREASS
Method in brief: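 Universal all-10-mer Agilent arrays, double-stranded by primer extension on fresh or once-stripped slides, were probed with about 100-200 nM GST-tagged yeast transcription factors made by PURExpress. Fluorescent anti-GST detected bound protein, and masliner normalised the scans. E-scores from the Universal PBM Analysis Suite were given to each ungapped eight-base word pooled with its reverse complement.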

| Sequence | PBM E-score |
| --- | --- |
| CGCGCGGA | 0.227 |
| CTCGCCTC | -0.132 |
| CTGCTCGC | 0.0141 |
| CTGGATAC | -0.108 |
| ATTCTGCC | 0.198 |
| AAGTTCTG | -0.0661 |
| TAGCAGGA | -0.0593 |
| AATAGAAG | -0.0036 |
| CAGAGACC | -0.212 |
| GGGCGAAA | 0.0498 |
| AATGAGCG | 0.187 |
| CGATATCC | 0.133 |
| ACGGCGTC | -0.0952 |
| CGTATAAC | -0.0636 |
| GCGTCCAC | -0.148 |
| AATTGGTG | 0.109 |
| ATACTGCC | 0.0803 |
| CATTTCCA | 0.237 |
| GCTTAAAA | -0.00191 |
| CCACCTTA | 0.0275 |
| CAGTGTCC | -0.0662 |
| GTCAGGAA | -0.0289 |
| GTAAAATA | -0.0589 |
| AACCGGCT | -0.0918 |
| ACGCTGAT | -0.118 |

| Sequence | PBM E-score |
| --- | --- |
| ATAGCTTG | -0.0154 |
| CTCGCCCC | -0.166 |
| ATAATAAG | 0.0711 |
| TAGTAAGA | 0.107 |
| AGGCTAAC | -0.106 |
| CCTCACTC | -0.0183 |
| CGGCGGTC | -0.0159 |
| CAACACCC | 0.135 |
| GTGTTGTA | 0.0321 |
| ACATCTAT | 0.128 |
| CTCCAGAA | -0.196 |
| AAGACATA | 0.12 |
| CTCGGGGA | -0.0217 |
| AACAAGTC | 0.0786 |
| AGCACCCC | -0.124 |
| GGACATAA | 0.0478 |
| AGTGATGA | -0.11 |
| GTGAGTTA | 0.094 |
| CGCGGGAA | 0.14 |
| CCGCCGAA | 0.0478 |
| ACCCAGGC | 0.012 |
| GGAGATCA | 0.0601 |
| CAACTGAA | 0.0416 |
| ATGGGGCA | 0.0454 |
| AGTATTAA | 0.219 |

| Sequence | PBM E-score |
| --- | --- |
| CTCGCAAG | 0.0228 |
| GCCCAAGC | 0.106 |
| CACGGGAC | 0.14 |
| AATGCGAC | 0.0256 |
| AGTAGCGC | 0.126 |
| GCTTGGAC | -0.206 |
| GGTCGCCA | -0.142 |
| CTAAATTA | 0.127 |
| GCAGCCGC | -0.0337 |
| AAAACTTG | 0.0487 |
| CGGGCCAC | -0.0893 |
| CCATCCTA | 0.0372 |
| ACTAGTGA | -0.167 |
| ATTAACCC | 0.0948 |
| TAGAATCA | -0.0142 |
| CTCCCTTA | -0.202 |
| CCCATGTC | -0.0113 |
| AAGGTGCT | 0.0859 |
| CCCAATGA | -0.0631 |
| TCGAAAGA | 0.163 |
| GACTAGGC | -0.188 |
| CTAAGCAC | 0.0598 |
| GGTATGGA | -0.135 |
| AACAACCA | 0.178 |
| CTCCATCC | -0.22 |

| Sequence | PBM E-score |
| --- | --- |
| CATCACGG | -0.023 |
| ACGCGTAG | 0.116 |
| GGATCTAC | -0.0823 |
| ATACAAGA | -0.0492 |
| CGATGTAA | 0.0345 |
| AACTGACC | -0.0188 |
| AGTCCCCG | -0.0464 |
| AGTGAGAT | 0.0026 |
| AATTGATC | 0.0837 |
| CATAAGGG | 0.19 |
| CCGCTGGC | -0.181 |
| GAAACACC | 0.0146 |
| AGCCTATA | 0.0899 |
| GCCCACTA | -0.0031 |
| AGGGTCGG | 0.0394 |
| CGGGTATA | -0.0142 |
| AGAGCACT | 0.00486 |
| TATACCCA | -0.0845 |
| ATGCGTAA | 0.03 |
| CCCTTGCG | -0.0569 |
| AGTGTATC | 0.204 |
| CGCAAGTC | -0.129 |
| AGAGGCGG | -0.0539 |
| CTACCCGA | -0.164 |
| ATGACCGA | -0.0358 |

| Sequence | PBM E-score |
| --- | --- |
| GGTACCAA | 0.0728 |
| ATTTTCTA | -0.0141 |
| AAAAGTTC | 0.103 |
| CGGGCACC | -0.213 |
| AAACTCTG | 0.102 |
| CCCTAGGC | -0.111 |
| GGACCTTA | -0.0226 |
| CGTACTAG | 0.00346 |
| TAGTGAAA | -0.0329 |
| CACTGTCC | -0.0235 |
| GTACTTTA | 0.0371 |
| CCCAGCCG | -0.265 |
| CTCTCCGC | -0.0768 |
| CATTTGAA | 0.0105 |
| AACTGATA | 0.107 |
| CTGCAACC | -0.0699 |
| CGTGCTGC | -0.153 |
| GTTAGTTA | 0.0784 |
| AATAGATG | 0.148 |
| ACACTCGA | 0.094 |
| GCCGAGCC | 0.0583 |
| AGGTAGAA | 0.0985 |
| AAAAGGGC | 0.12 |
| CGAGTTGA | 0.0599 |
| GCGCATCA | 0.0788 |

| Sequence | PBM E-score |
| --- | --- |
| GCACGGAA | 0.0823 |
| GGGACTAA | 0.0455 |
| AAAGGTGC | -0.0687 |
| AGCTGCTC | 0.0695 |
| ATCGTACC | -0.146 |
| AAGTCCAA | 0.112 |
| CAGCTTAC | -0.0326 |
| GGTAGGCA | -0.199 |
| AATTTCCA | 0.0794 |
| CACGCAAA | -0.0804 |
| AAGCGACC | 0.106 |
| TACAGGGA | 0.127 |
| CGTCGGAC | -0.212 |
| AGAACTGG | 0.0995 |
| GGGGGCTA | -0.319 |
| AACGACCA | -0.127 |
| AATACTGA | 0.00413 |
| AATGGCAT | 0.26 |
| ATGCTTCA | -0.0393 |
| GGAGGACA | -0.0977 |
| GGACCAGA | -0.0813 |
| CTCCACCA | -0.187 |
| GGTCTAAA | 0.0765 |
| ACATACGG | -0.154 |
| TAAGACCA | -0.0131 |

| Sequence | PBM E-score |
| --- | --- |
| CGAGCTGC | 0.12 |
| ACTTTCTA | 0.0942 |
| GAAACAAC | 0.0259 |
| CACGAGCG | -0.125 |
| GGACCCAC | 0.0687 |
| GACAAAGA | 0.0907 |
| GGCACAAA | 0.0328 |
| CAGTGTAA | 0.155 |
| CACTCCTC | -0.095 |
| AGCTCCGG | -0.134 |
| CTACGACC | -0.0715 |
| CCGGTCTA | -0.336 |
| AACCATTA | 0.11 |
| AGGAGCTC | -0.235 |
| CAGGTCTA | -0.0487 |
| AGACCATC | 0.0238 |
| GAGGATGA | -0.0182 |
| ACGGAAGA | -0.0304 |
| ATATTATA | 0.0282 |
| ATACACCG | -0.0841 |
| AAGCGGCC | -0.185 |
| CGGCCTGA | -0.17 |

A stretch from the list above, as a working copy:

| Sequence | PBM E-score |
| --- | --- |
| GACAAAGA | 0.0907 |
| GGCACAAA | 0.0328 |
| CAGTGTAA | 0.155 |
| CACTCCTC | -0.095 |
| AGCTCCGG | -0.134 |
| CTACGACC | -0.0715 |
| CCGGTCTA | -0.336 |
